# Laboratory results taken from PubChem BioAssay AID662 (National Center for Advancing Translational Sciences (NCATS), 2007).
# Some of the results follow. Shown are side measurements of this screen, not its main read-out; they come without a call. Compounds called inactive in the main read-out are mostly missing here. Words in brackets tell the shape of the fitted curve; partial curves, single points and poor fits give uncertain potencies.
# Test: Cell signaling CRE-BLA (Fsk stim)
# Details: CHO CRE-bla reporter (cAMP response element driving beta-lactamase), forskolin EC10, beta-lactamase ratio; measured here: 460 nm blue channel
# In short: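 CRE-bla CHO cells stimulated with EC10 NKH 477 (water-soluble forskolin) and compound titrations, 3 h at 37C; beta-lactamase read with CCF4 after 2 h at room temperature. Activity from 460/530 nm emission ratio, AC50 values for positive or negative modulation.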
row,SMILES,AC50
1,Clc1ccccc1OCCn1cnc2ccccc21,"3.16 µM [rising, partial curve]"
2,CCC(=O)NCCn1c(C)cc2ccccc21,"10 µM [rising, partial curve]"
3,COC(=O)C1=C(C)N(c2ccc(OC)c(OC)c2)C(=O)C1,"15.8 µM [falling, single point]"
4,Cc1ccc2cc3cc(C(=O)N4CCCCC4C)oc3nc2c1 (centres undefined),"2.51 µM [rising, full curve]"
5,CCOC(=O)c1c(C)oc2cc(Br)c(OC(=O)N3CCOCC3)cc12,"12.6 µM [rising, partial curve]"
6,Cc1onc(-c2ccccc2Cl)c1C(=O)OCn1nnc2ccccc2c1=O,"0.00398 µM [falling, full curve, poor fit]"
7,O=C(CSc1nnc(C2CC2)n1Cc1ccccc1)N1CCN(S(=O)(=O)c2ccccc2)CC1,"0.0794 µM [falling, full curve]"
8,COC(=O)c1ccc(CSc2nnnn2-c2ccc(C)cc2C)o1,"0.794 µM [rising, full curve]"
9,CC(C)n1c(SCC(=O)Nc2ccc3c(c2)OCO3)nc2c1c(=O)n(C)c(=O)n2C,"7.94 µM [rising, partial curve]"
10,Cc1nc2sc(C(c3cccs3)N3CCC(C(N)=O)CC3)c(O)n2n1 (centres undefined),"3.98 µM [rising, single point]"
11,CCOc1ccc(-n2cc(C(=O)N3CCC(C)CC3)c3cc(OC)c(OC)cc3c2=O)cc1,"15.8 µM [rising, partial curve]"
12,CCCC(=O)Nc1cc(-c2nn(C)c(=O)c3ccccc23)ccc1N1CCCCC1,"2.51 µM [rising, full curve]"
13,CN(C)c1ncc2nc(-c3ccc(F)cc3)c(=O)n(-c3ccccc3)c2n1,"3.98 µM [rising, partial curve]"
14,COc1ccc2c(=O)c3c(=O)n(Cc4ccco4)c(-c4ccccc4)nc3oc2c1,"5.01 µM [rising, partial curve]"
15,CCOc1ccc(NC(=O)CN(C)CC(=O)Nc2ccccc2C#N)cc1OCC,"5.01 µM [falling, single point]"
16,c1ccc(-c2cccc(N3CCC4(CCNCC4)CC3)c2)cc1,"25.1 µM [rising, single point]"
17,Cc1ccc(-c2nnn(CC(=O)NCC3COCCO3)n2)o1 (centres undefined),"0.126 µM [falling, partial curve, poor fit]"
18,Cc1c(Nc2cc(=O)oc3ccccc23)c(=O)n(-c2ccccc2)n1C,"0.00316 µM [falling, partial curve, poor fit]"
19,O=C(CCc1nc(-c2ccccc2F)no1)NCCN1CCOCC1,"25.1 µM [falling, single point]"
20,O=C(Nc1cccc(-c2cn3cccnc3n2)c1)c1ccc(Br)o1,"1.26 µM [falling, partial curve]"
21,O=C(NC1CCCCCC1)C1CCCN(S(=O)(=O)c2cccs2)C1 (centres undefined),"0.316 µM [falling, partial curve]"
22,O=C(Cc1ccccc1)Nc1ccc(-c2nnc(-c3ccco3)o2)cc1,"1.58 µM [falling, partial curve, poor fit]"

row,SMILES,AC50
1,Cc1cn2nc(N)c3ccccc3c2n1,"25.1 µM [rising, single point]"
2,Cc1ccc(Cn2c(SCCN3CCOCC3)nc3c2c(=O)n(C)c(=O)n3C)cc1,"12.6 µM [rising, single point]"
3,Cc1nc(SCn2nnc3ccccc3c2=O)nc(C)c1C,"5.01 µM [rising, partial curve]"
4,COc1ccc(-n2c(=O)cc(N3CCN(c4ccccc4)CC3)[nH]c2=O)cc1,"5.01 µM [falling, partial curve]"
5,O=C(COC(=O)Cn1cnc2ccccc21)NCCC1=CCCCC1,"5.01 µM [falling, single point]"
6,COc1ccc(N(CC(=O)Nc2cc(OC)ccc2OC)S(C)(=O)=O)cc1,"0.00316 µM [falling, full curve, poor fit]"
7,CCc1nnc(SCC(=O)NC2CCCCC2)nc1CC,"0.00501 µM [falling, full curve, poor fit]"
8,OC1CCN(c2c3c(nc4cc(-c5cccc(F)c5)nn24)CCCC3)CC1,"1.58 µM [rising, full curve]"
9,CCOC(=O)c1cnc2ccc(Br)cc2c1NCCO,"0.00316 µM [falling, full curve, poor fit]"
10,COc1ccccc1C(=O)OCC(=O)Nc1ccc(OC(F)F)cc1,"5.01 µM [falling, single point]"
11,CCOc1ccc(-n2nc(C(=O)NCCOC)c3ccccc3c2=O)cc1,"0.501 µM [rising, full curve]"
12,COc1cc(C2NC(=O)NC(C)=C2C(=O)OC2CCCCC2)cc(Br)c1O (centres undefined),"15.8 µM [rising, single point]"
13,Cc1cc(C)n(-c2ccc(Cl)c(C(=O)O)n2)n1,"5.01 µM [falling, single point]"
14,CCN(CCCNC(=O)CN(C)S(=O)(=O)c1cccc2nsnc12)c1cccc(C)c1,"7.94 µM [rising, partial curve]"
15,CC(C)CCNC(=O)NC(=O)CN1C(=O)NC2(CCCCC2)C1=O,"3.98 µM [falling, single point]"
16,O=C(COc1cccc(Oc2ccccc2)c1)Nc1ncccn1,"5.01 µM [falling, single point]"
17,COc1cc(NC(=O)c2ccccc2)cc(OC)c1,"12.6 µM [falling, partial curve]"
18,Cc1cc(Cl)ccc1OCC(=O)Nn1c(C)ccc1C,"12.6 µM [falling, partial curve]"
19,COc1ccc(C(=O)NCc2ccccc2OC)c(OC)c1,"1.26 µM [rising, partial curve]"
20,Cc1csc(NC(=O)c2cccc(Cn3nc(C)c(Br)c3C)c2)n1,"10 µM [rising, partial curve]"
21,CCC(C)Sc1nc2c(c(=O)[nH]c(=O)n2C)n1Cc1ccccc1Cl (centres undefined),"3.98 µM [rising, partial curve]"
22,COc1ccc2[nH]c(=O)c(CN(CC3CCCO3)C(=O)Nc3ccccc3)cc2c1 (centres undefined),"20 µM [rising, single point]"

# Eleven of these compounds, reformatted:
row	SMILES	AC50
2	CCC(=O)NCCn1c(C)cc2ccccc21	10 µM [rising, partial curve]
3	COC(=O)C1=C(C)N(c2ccc(OC)c(OC)c2)C(=O)C1	15.8 µM [falling, single point]
4	Cc1ccc2cc3cc(C(=O)N4CCCCC4C)oc3nc2c1 (centres undefined)	2.51 µM [rising, full curve]
5	CCOC(=O)c1c(C)oc2cc(Br)c(OC(=O)N3CCOCC3)cc12	12.6 µM [rising, partial curve]
6	Cc1onc(-c2ccccc2Cl)c1C(=O)OCn1nnc2ccccc2c1=O	0.00398 µM [falling, full curve, poor fit]
7	O=C(CSc1nnc(C2CC2)n1Cc1ccccc1)N1CCN(S(=O)(=O)c2ccccc2)CC1	0.0794 µM [falling, full curve]
8	COC(=O)c1ccc(CSc2nnnn2-c2ccc(C)cc2C)o1	0.794 µM [rising, full curve]
9	CC(C)n1c(SCC(=O)Nc2ccc3c(c2)OCO3)nc2c1c(=O)n(C)c(=O)n2C	7.94 µM [rising, partial curve]
10	Cc1nc2sc(C(c3cccs3)N3CCC(C(N)=O)CC3)c(O)n2n1 (centres undefined)	3.98 µM [rising, single point]
11	CCOc1ccc(-n2cc(C(=O)N3CCC(C)CC3)c3cc(OC)c(OC)cc3c2=O)cc1	15.8 µM [rising, partial curve]
12	CCCC(=O)Nc1cc(-c2nn(C)c(=O)c3ccccc23)ccc1N1CCCCC1	2.51 µM [rising, full curve]
